{"source": "patent US20260076988A1", "about": "(The Cleveland Clinic Foundation, priority 2019, published 2026)", "test_system": "Dck, Uck2, Cda and Cad", "assay": "F1339 cells: pyrimidine metabolism enzyme expression by QRT-PCR and Western blot", "type": "cell-based, murine", "description": "FIG. 2. […] F1339 p53-null cancer cells were seeded at D0 and treated with DMSO, deoxycytidine (DC, 0.5 μM), cytidine (CY, 5 μM), Dec (0.5 μM) and 5Aza (5 μM). […] Cell counts by automated counter, mean±SD. […] Gene expression by Q-PCR, median±interquartile range (IQR) (3 biological replicates), *p<0.05, **p<0.01. 2-sided Mann-Whitney test. […] Western blot.\nRNA was extracted using Trizol reagent (Invitrogen) before the generation of complementary DNA using the iScript™ cDNA Synthesis Kit (Bio-rad). Quantitative PCR was run on StepOnePlus Real-Time PCR System (Applied Biosystems), using comparative Ct value method to quantify the expression of target genes in different samples. Gene expression was normalized to the housekeeping gene β-actin.\nTumor cells were lysed with RIPA lysis buffer and protein concentrations determined by BCA protein assay kit (Thermo Fisher Scientific). Samples with equal quantity (40 μg) of total protein were mixed with 4× loading buffer and 10× sample reducing reagent (Thermo Fisher Scientific), subjected to electrophoresis on a 12% (v/v) SDS-polyacrylamide gel, then transferred onto polyvinylidene fluoride membranes. After blocking with 5% dried skimmed milk, the membranes were washed three times and incubated with primary antibodies at 4° C. overnight. […]", "data": [{"smiles": "Nc1ncn([C@@H]2O[C@H](CO)[C@@H](O)[C@H]2O)c(=O)n1", "note": "[5-azacytidine]", "values": [{"measurement": "time of peak mRNA expression changes after drug exposure", "result": "~72", "unit": "h"}, {"measurement": "time of peak protein level changes after drug exposure", "result": "~96", "unit": "h"}]}]}
